# Results from PubChem BioAssay AID445 (National Center for Advancing Translational Sciences (NCATS), 2006).
# The other results are listed elsewhere or left out. These are further read-outs of the screen, such as a control signal, another cell line or another target. No call is given for them. Compounds called inactive in the main read-out are mostly missing here. The note in brackets gives the kind of curve behind each potency; many fits are weak.
# Experiment: IkB Signaling
# Details: ABC-DLBCL IkBa-CBG/CBR dual luciferase ratio (green luciferase fused to IkBa over red control in OCI-Ly3 lymphoma cells), 4 h
# How it was run: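 In this assay, an IκBα–CBG68 fusion accumulates when IKK-driven degradation is blocked; native CBR normalizes for cell number. OCI-Ly3 cells were treated 4 h with compound and doxycycline, then green and red light read after Chroma-Glo addition.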
# [1] = measured here: control luc red channel unless noted
compound,measurement,setting,value
C#CCOc1ccc(C2C(C(=O)OC)=C(C)NC3=C2C(=O)c2ccccc23)cc1OCC (configuration not stated),AC50,[1],"15.8 µM [falling, single point]"
CCOc1ccc(Sc2cc(C(=O)NCCCOC)c3ccccc3n2)cc1,AC50,[1],"12.6 µM [falling, partial curve]"
Clc1ccc(CCNc2ncnc3nc[nH]c23)cc1,AC50,[1],"10 µM [falling, partial curve]"
CCOc1ccc(NC(=O)CSc2nnc(CC)c(CC)n2)cc1,AC50,[1],"20 µM [falling, partial curve, poor fit]"
Cc1ccc2c(c1)-c1c(cnn1CC(=O)Nc1ccccc1N1CCN(C)CC1)CO2,AC50,[1],"31.6 µM [falling, single point]"
Cc1cccc(C)c1NC(=O)C1CCCN(S(=O)(=O)c2c(C)noc2/C=C/N(C)C)C1 (configuration not stated),AC50,[1],"25.1 µM [falling, single point]"
COc1ccccc1CNC(=O)c1ccc(NC(=O)N2CC(C)Sc3ccccc32)cc1 (configuration not stated),AC50,[1],"12.6 µM [falling, partial curve]"
COc1ccc(S(=O)(=O)NCC(c2ccco2)S(=O)(=O)c2ccc(C)cc2)cc1C (configuration not stated),AC50,[1],"15.8 µM [falling, partial curve, poor fit]"
Cc1nn2c(c1-c1ccccc1)N=C(c1ccco1)CC2c1ccccc1 (configuration not stated),AC50,[1],"6.31 µM [falling, partial curve]"
O=C(Nc1ccc2nc(SCC(=O)N3CCCc4ccccc43)sc2c1)c1cccc(F)c1,AC50,[1],"3.16 µM [falling, full curve]"
COc1cccc(CNC(=O)c2ccc(CSc3nc4ccncc4n3Cc3cccc(C)c3)cc2)c1,AC50,[1],"12.6 µM [falling, partial curve]"
COc1cc(NC(=O)CCc2c(C)nn(-c3ccc4nncn4n3)c2C)cc(OC)c1OC,AC50,[1],"0.158 µM [rising, full curve]"
Cc1ccc(Cl)cc1N1CCN(S(=O)(=O)c2ccc3[nH]c4c(c3c2)CCCCC4)CC1,AC50,[1],"10 µM [falling, partial curve]"
Cc1cccc(CSc2ncc(CO)n2Cc2ccc(F)cc2)c1,AC50,[1],"1.26 µM [falling, partial curve]"
O=C(NC1CCCCCC1)c1ccc(N2CCCC2=O)cc1,AC50,[1],"7.94 µM [falling, partial curve]"
COCCn1c(SCC(=O)Nc2ncc(C)s2)nc2sc3c(c2c1=O)CCC3,AC50,[1],"20 µM [falling, partial curve]"
COc1cccc(N2CCN(S(=O)(=O)c3cc(Br)cc4c3N(C(=O)C3CC3)CC4)CC2)c1,AC50,[1],"0.00631 µM [falling, full curve, poor fit]"
Cc1cccc(N2C(=O)CSC23C(=O)N(Cc2cccc(F)c2)c2ccccc23)c1 (configuration not stated),AC50,[1],"20 µM [falling, partial curve]"
CN1CCN(C(CNC(=O)C(=O)Nc2ccccc2)c2ccc3c(c2)OCO3)CC1 (configuration not stated),AC50,[1],"0.316 µM [falling, full curve]"
O=C(CSc1n[nH]c(=O)n1C1CC1)Nc1cc(Cl)ccc1Oc1ccccc1,AC50,measured here: IkB-luc green channel,"20 µM [falling, partial curve]"
same,AC50,measured here: control luc red channel,"20 µM [falling, partial curve]"
Cc1cccc(-c2noc(CN(C(=O)COc3ccc(C(C)C)cc3)C(C)C)n2)c1,AC50,[1],"10 µM [falling, partial curve]"
CCOC(=O)c1c(C)n(-c2ccccc2)c2ccc(OC(=O)c3ccccc3)cc12,AC50,[1],"1.58 µM [rising, full curve]"
Cc1c(CC(=O)NCCc2ccccc2F)c(=O)oc2c(C)c3occ(C(C)(C)C)c3cc12,AC50,[1],"10 µM [falling, partial curve]"
COc1cccc(N2CCN(C(=O)c3ccc4c(=O)n(CCc5ccccc5)c(=O)[nH]c4c3)CC2)c1,AC50,[1],"0.398 µM [falling, full curve]"
CCOc1ccc(OCC)c(NC(=O)CN2CCN(c3cccc(C)c3)C(C)C2)c1 (configuration not stated),AC50,[1],"20 µM [falling, partial curve]"
CCc1ccc(S(=O)(=O)c2nnn3c2nc(N2CCC(C)CC2)c2cc(Cl)ccc23)cc1,AC50,[1],"12.6 µM [falling, partial curve]"
COc1ccc(-c2cc(C(=O)NCc3cc(OC)c(OC)c(OC)c3)[nH]n2)cc1,AC50,[1],"39.8 µM [falling, single point]"
Cc1cccc(OCC(=O)Nc2c(C)ccc3nsnc23)c1C,AC50,[1],"20 µM [rising, partial curve, poor fit]"
Cc1ccc(Cl)c2c1N[C@@H](c1ccc(C(=O)O)cc1)[C@H]1CC=C[C@@H]21,AC50,[1],"31.6 µM [falling, partial curve]"
CCOc1ccc(-c2nc(CSCC(=O)N3CCN(c4cccc(C(F)(F)F)c4)CC3)c(C)o2)cc1,AC50,[1],"15.8 µM [falling, partial curve]"
Cc1cc2c3c(c1)C1(C(=O)N3C(C)(C)CC2C)C(C#N)=C(N)Oc2cc(O)ccc21 (configuration not stated),AC50,[1],"12.6 µM [falling, partial curve]"
CCc1ccc(NC(=O)c2cc(C(C)=O)n3ccccc23)cc1,AC50,[1],"25.1 µM [falling, single point]"
CC(C)c1ccc(C2N3CC4(C)CN2CC(c2ccccc2)(C3)C4=O)cc1 (configuration not stated),AC50,[1],"15.8 µM [falling, partial curve]"
CCCc1nn2c(=O)cc(COC(=O)c3cccc(NC(=O)COc4ccc(F)cc4)c3)nc2s1,AC50,[1],"0.398 µM [falling, full curve]"
Clc1cccc(N2CCN(c3ncnc4c3nc3n4CCCCC3)CC2)c1,AC50,[1],"3.98 µM [falling, full curve]"
Cc1nc(-c2ccc(Cl)cc2)sc1CCNC(=O)C(=O)Nc1ccc(F)cc1F,AC50,[1],"10 µM [rising, partial curve, poor fit]"
CCCCN1C(=O)c2[nH]nc(-c3ccccc3O)c2C1c1cccc(OCc2ccccc2)c1 (configuration not stated),AC50,[1],"25.1 µM [falling, partial curve]"
Cc1ccccc1NC(=O)c1ccc(F)c(S(=O)(=O)N(C)Cc2ccccc2)c1,AC50,[1],"39.8 µM [falling, single point]"
COc1ccccc1C1C=C(c2ccc(F)cc2)Nc2nc(-c3ccc(Cl)cc3)nn21 (configuration not stated),AC50,[1],"10 µM [falling, partial curve]"
Cc1ccc2[nH]c(=O)c3cc(C(=O)N4CCN(c5ccccc5)CC4)sc3c2c1,AC50,[1],"1 µM [falling, full curve]"
COc1cccc(NC(=O)NCc2ccc3c(c2)CCN3C(=O)c2ccccc2)c1,AC50,[1],"15.8 µM [falling, partial curve]"
Cc1cccc(C(=O)Nc2sc3c(c2C(=O)NCc2ccco2)CCCC3)c1,AC50,[1],"6.31 µM [falling, partial curve]"
COc1ccccc1-c1nc2c(c(SCc3cccc(Cl)c3)n1)Cc1c(CO)cnc(C)c1O2,AC50,[1],"0.158 µM [rising, full curve, poor fit]"
CCOC(=O)c1ccccc1NC(=O)N1CCc2c(sc(C)c2CC)C1c1ccccc1 (configuration not stated),AC50,[1],"0.00631 µM [rising, full curve]"
COc1cc(OC)cc(C(=O)Oc2c(Sc3ccccc3)c(C)nn2C(C)(C)C)c1,AC50,[1],"0.251 µM [rising, full curve]"
CCOc1ccc(-n2c(Cc3ccccc3)nnc2SCc2nc(-c3ccccc3OC)no2)cc1,AC50,[1],"39.8 µM [falling, single point]"
O=C(Nc1cccs1)Nc1cc(C(F)(F)F)ccc1Cl,AC50,[1],"20 µM [falling, partial curve]"
CCOC(=O)C1CCN(c2ncnc3c2c(-c2ccccc2)cn3-c2cccc(C)c2)CC1,AC50,[1],"25.1 µM [falling, partial curve]"
CCOC(=O)c1c(C)[nH]c2ccc3c(c12)CN1CCc2cc(OC)ccc2[C@@H]1O3,AC50,[1],"39.8 µM [falling, single point]"
Cc1cccc(NC(=O)CCCn2c(C)c3cnn(-c4ccccc4)c(=O)c3c2C)c1C,AC50,[1],"0.501 µM [falling, full curve]"
CCc1ccc(CNC(=O)c2sc3ncccc3c2-n2c(C)ccc2C)cc1,AC50,[1],"20 µM [falling, single point]"
CCOc1ccccc1CNS(=O)(=O)c1ccc2c(c1)CCCN2C(C)=O,AC50,[1],"25.1 µM [rising, single point]"
Cc1ccc(OCC(=O)Nc2ccc(S(=O)(=O)Nc3cc(C)nc(C)n3)cc2)c(Br)c1,AC50,[1],"25.1 µM [falling, single point]"
O=C(NCc1cn2ccsc2n1)Nc1cccc(Cl)c1,AC50,[1],"20 µM [falling, single point]"
COc1ccc(C2=CC(c3ccc(F)cc3)n3ncc(C(=O)Nc4ccc(C)cc4)c3N2)cc1 (configuration not stated),AC50,[1],"3.16 µM [falling, single point]"
COc1cccc(NC(=O)CSc2nc3c(oc4ccccc43)c(=O)n2Cc2ccco2)c1,AC50,[1],"25.1 µM [falling, partial curve, poor fit]"
CCOC(=O)C1CCCN(C(=O)C2CCN(c3nnc(C)c4c(C)n(-c5ccccc5)nc34)CC2)C1 (configuration not stated),AC50,[1],"15.8 µM [falling, partial curve]"
CC1CN(c2nn3c(=O)c4ccccc4nc3c3ccccc23)CC(C)O1 (configuration not stated),AC50,[1],"20 µM [falling, partial curve]"
Clc1ccc(-c2noc3ncnc(NCCCN4CCN(c5ccccc5)CC4)c23)cc1,AC50,[1],"39.8 µM [falling, single point]"
Cc1cc(NC(=O)CSc2nc3c([nH]c4ccccc43)c(=O)n2-c2cccc(Cl)c2)no1,AC50,[1],"31.6 µM [rising, single point]"
CCOc1ccccc1NC(=O)C(Cc1ccccc1)NS(=O)(=O)c1ccc(Br)s1 (configuration not stated),AC50,[1],"15.8 µM [falling, partial curve]"

# Quoted at random: five entries already listed.
compound,measurement,setting,value
O=C(NC1CCCCCC1)c1ccc(N2CCCC2=O)cc1,AC50,[1],"7.94 µM [falling, partial curve]"
Cc1cccc(N2C(=O)CSC23C(=O)N(Cc2cccc(F)c2)c2ccccc23)c1 (configuration not stated),AC50,[1],"20 µM [falling, partial curve]"
CCOc1ccc(NC(=O)CSc2nnc(CC)c(CC)n2)cc1,AC50,[1],"20 µM [falling, partial curve, poor fit]"
CCc1ccc(CNC(=O)c2sc3ncccc3c2-n2c(C)ccc2C)cc1,AC50,[1],"20 µM [falling, single point]"
CCCc1nn2c(=O)cc(COC(=O)c3cccc(NC(=O)COc4ccc(F)cc4)c3)nc2s1,AC50,[1],"0.398 µM [falling, full curve]"
